Experimental findings from patent US20060160905A1, “Compositions and methods for inhibiting pain” (priority 2005, published 2006) are described below.

The test system of the experiment is acetic acid-induced visceral pain. The experiment in a line: acetic acid-induced visceral pain mouse model (writhing/stretch count). It counts as in vivo, mice (male Harlan ICR). To be noted: for number of stretches (writhes) per 30 minutes: 0.75% acetic acid IP half an hour later, control mice typically stretch 65-70 times/30 minutes. How it is done: The acetic acid-induced visceral pain mouse model test is, of course, well known to those skilled in the art and is described in the seminal paper by Collier et al [Collier, H. O. J., L. C. Dinneen, C. A. Johnson and C. Schneider 1968. The abdominal constriction response and its suppression by analgesic drugs in the mouse.
The drugs are identified below as Monoamine #1-6. Five groups of five mice (male Harlan ICR, weight 35-50 g) were used to test each of the drugs. Control animals were tested as part of each experiment as well. The mice in each group were weighed and identified with a tail marking and were given a single dose of one of the drugs at 1 ml/100 g SC. The first group served as controls and was given only saline; the other five groups were given a drug at five doses ranging from 0.37 mg/kg up to 30.0 mg/kg. After the drug was administered, the mice were allowed to acclimate for one-half hour and were then given an IP injection of 0.75% Glacial acetic acid at a volume of 1 ml/100 g. Once the acid was injected, the mice were put into individual clear containers for observation. The mice were then watched continuously for one-half hour and the number of “stretches” or writhes were counted. The animal was considered to be stretching when its front legs stepped forward and at least one hind leg was extended out behind them. At the end of the thirty-minute observational period the mice were sacrificed with CO2. The same procedure was followed for all of the different compounds examined.

On to `CN1CC[C@]23c4c5ccc(O)c4O[C@H]2[C@@H](O)C=C[C@H]3[C@H]1C5` [morphine, reference compound], for which the “number of stretches (writhes) per 30 minutes” value stood at 0 stretches/30 minutes (10 mg/kg SC single dose) and 0 stretches/30 minutes (30 mg/kg SC single dose). Also, the “effect on inhibiting visceral pain (stretches vs. control mice), in words” value (doses from 0.37 mg/kg to 30.0 mg/kg SC) was “effective at all of the doses tested”.
